Here are results for 1 substance from paper PMC11891296, “Mechanical forces and ligand binding modulate Pseudomonas aeruginosa PilY1 mechanosensitive protein” (Life Science Alliance, 2025).

By UniProt entry, the sequences of proteins in these tests, tags left out. Where a name states a change or a piece, a line headed by the entry shows the natural chain unless it says otherwise.
UniProt P06756: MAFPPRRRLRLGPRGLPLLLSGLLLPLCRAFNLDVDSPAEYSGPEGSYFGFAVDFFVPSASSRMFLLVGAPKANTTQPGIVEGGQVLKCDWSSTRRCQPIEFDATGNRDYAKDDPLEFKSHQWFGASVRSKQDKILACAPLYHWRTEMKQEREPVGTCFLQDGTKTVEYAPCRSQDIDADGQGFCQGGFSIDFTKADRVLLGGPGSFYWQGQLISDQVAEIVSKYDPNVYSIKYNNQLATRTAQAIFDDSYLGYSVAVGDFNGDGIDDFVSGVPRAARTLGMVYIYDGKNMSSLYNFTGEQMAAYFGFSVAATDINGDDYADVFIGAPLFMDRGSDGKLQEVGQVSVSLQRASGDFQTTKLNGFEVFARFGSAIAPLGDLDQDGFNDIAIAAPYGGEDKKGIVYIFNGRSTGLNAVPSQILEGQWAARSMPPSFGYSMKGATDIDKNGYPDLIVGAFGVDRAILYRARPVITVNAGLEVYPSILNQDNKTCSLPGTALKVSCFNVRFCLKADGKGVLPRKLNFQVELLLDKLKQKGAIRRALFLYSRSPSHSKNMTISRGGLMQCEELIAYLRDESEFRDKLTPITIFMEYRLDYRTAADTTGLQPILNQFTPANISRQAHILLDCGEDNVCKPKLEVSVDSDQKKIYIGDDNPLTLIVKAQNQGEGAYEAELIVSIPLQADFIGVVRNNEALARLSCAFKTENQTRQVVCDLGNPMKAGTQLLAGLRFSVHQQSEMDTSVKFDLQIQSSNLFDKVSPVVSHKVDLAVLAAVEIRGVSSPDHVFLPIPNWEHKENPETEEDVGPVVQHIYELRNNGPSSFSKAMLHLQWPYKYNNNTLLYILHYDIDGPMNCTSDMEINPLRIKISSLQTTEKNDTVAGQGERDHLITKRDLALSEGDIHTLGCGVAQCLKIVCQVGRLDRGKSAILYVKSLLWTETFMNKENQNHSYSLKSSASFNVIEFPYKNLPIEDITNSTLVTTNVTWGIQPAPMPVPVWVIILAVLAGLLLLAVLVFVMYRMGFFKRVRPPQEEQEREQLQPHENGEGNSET

Results are given in words; binding and its absence hold for the method and conditions named.

The target in the experiment is PilY1^642−1161 chimeric polyprotein (HaloTag-(I32)2-PilY1 residues 642-1161-(I32)2-HisTag-AviTag) (P. aeruginosa PAO1) (UniProt Q9HVM8). Kind of experiment: single-molecule magnetic tweezers; PilY1^642-1161 tethered; 800 nM integrin; cycles of unfolding at 40 pN, quench to 5.0 pN for 50-2,000 s, unfolding again at 40 pN; binding looked for as a change in the final unfolded extension; both purified.

With “recombinant αVβ5 human integrin extracellular domains (from UniProt P06756 31-992; P18084 24-719) (complex)”, the binding result is “no binding (tested: 800 nM)”.
